The source of these data is publication PMC5547131.

The chains behind the UniProt entries cited, without tags or fusion partners. Where a name states a change or a piece, a line headed by the entry shows the natural chain unless it says otherwise. A line that says so, or that is headed by a name, gives the form on record, which may keep a tag or linker. Residues count along the entry.
recombinant hVEGF-C (P49767, residues 112-227): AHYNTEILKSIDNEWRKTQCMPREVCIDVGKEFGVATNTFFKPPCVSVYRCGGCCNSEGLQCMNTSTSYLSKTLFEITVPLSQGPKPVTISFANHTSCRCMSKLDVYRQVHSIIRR
Human VEGF-C156S (P49767, form named): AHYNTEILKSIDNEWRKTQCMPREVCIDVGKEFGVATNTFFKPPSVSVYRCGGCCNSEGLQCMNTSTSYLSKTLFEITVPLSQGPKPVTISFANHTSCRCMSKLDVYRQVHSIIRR
UniProt P35916, residues 25-1363: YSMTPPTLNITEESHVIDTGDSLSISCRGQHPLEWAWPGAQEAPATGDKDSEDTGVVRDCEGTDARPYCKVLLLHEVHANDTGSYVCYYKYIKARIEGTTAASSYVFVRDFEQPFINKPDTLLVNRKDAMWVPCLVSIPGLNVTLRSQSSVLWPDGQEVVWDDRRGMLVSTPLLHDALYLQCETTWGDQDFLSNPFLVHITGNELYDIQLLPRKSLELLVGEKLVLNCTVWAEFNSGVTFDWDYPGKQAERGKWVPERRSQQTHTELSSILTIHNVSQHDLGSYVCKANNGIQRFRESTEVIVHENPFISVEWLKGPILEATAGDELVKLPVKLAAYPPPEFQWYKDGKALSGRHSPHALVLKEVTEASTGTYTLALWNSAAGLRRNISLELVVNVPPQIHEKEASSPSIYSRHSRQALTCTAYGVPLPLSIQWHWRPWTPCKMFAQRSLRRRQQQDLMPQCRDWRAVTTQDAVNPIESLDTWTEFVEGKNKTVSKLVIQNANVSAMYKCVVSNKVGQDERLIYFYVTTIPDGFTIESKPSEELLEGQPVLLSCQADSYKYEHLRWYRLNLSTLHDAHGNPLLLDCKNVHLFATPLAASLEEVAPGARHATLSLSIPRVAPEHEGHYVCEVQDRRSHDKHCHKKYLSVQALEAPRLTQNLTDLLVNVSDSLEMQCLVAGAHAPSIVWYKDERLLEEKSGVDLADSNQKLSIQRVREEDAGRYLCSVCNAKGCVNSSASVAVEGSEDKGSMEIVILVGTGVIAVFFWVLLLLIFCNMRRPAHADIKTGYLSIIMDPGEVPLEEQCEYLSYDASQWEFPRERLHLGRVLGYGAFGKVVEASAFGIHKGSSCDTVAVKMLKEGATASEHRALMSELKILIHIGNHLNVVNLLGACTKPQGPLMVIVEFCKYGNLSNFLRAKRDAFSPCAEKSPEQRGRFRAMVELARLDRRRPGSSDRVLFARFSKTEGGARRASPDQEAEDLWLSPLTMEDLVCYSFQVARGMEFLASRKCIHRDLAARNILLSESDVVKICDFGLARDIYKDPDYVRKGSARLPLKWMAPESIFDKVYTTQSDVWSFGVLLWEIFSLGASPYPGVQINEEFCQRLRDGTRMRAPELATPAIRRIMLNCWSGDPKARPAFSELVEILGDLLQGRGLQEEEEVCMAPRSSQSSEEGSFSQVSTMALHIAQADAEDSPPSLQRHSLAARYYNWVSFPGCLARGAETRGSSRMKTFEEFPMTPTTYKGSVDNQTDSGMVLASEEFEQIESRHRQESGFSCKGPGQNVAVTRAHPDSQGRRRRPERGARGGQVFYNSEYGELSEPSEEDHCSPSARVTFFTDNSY

Test [1] has as its target T1, CD146 (human (endogenous in HDLEC)) (UniProt P43121).
T1 sequence: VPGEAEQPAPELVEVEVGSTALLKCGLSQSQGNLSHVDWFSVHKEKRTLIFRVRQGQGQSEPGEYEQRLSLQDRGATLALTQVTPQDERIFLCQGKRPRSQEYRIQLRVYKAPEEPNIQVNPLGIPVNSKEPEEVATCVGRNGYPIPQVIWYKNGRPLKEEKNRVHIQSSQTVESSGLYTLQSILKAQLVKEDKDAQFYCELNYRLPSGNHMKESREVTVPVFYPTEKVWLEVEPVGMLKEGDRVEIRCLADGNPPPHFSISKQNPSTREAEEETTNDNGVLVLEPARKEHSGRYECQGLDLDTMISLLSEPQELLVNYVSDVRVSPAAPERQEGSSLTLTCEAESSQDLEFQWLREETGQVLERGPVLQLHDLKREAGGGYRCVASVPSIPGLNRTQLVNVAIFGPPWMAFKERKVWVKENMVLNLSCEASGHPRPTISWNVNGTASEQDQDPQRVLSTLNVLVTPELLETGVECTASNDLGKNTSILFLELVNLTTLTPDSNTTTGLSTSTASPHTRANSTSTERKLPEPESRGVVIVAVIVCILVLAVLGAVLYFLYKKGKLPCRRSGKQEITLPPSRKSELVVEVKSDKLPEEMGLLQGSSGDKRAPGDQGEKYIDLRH
Briefly: Western blot of the CD146 dimer; serum-starved HDLECs treated with VEGF-C156S for 20 min at different concentrations; how the dimer was kept for the blot is not told.

In test [2] the target is T1, CD146 (human (endogenous in HDLEC)). Nature of the test: co-IP; HDLECs incubated with VEGF-C156S (100 ng/ml) conditional medium, then lysed in RIPA buffer; precipitated with anti-CD146 mAb AA1 or control mIgG, protein G sepharose, WB; only the binder purified.
For test [3] the target is unchanged. Briefly: co-IP; HDLEC lysates in RIPA buffer; precipitated with anti-CD146 mAb AA1 or control mIgG overnight at 4 °C, protein G sepharose, WB; cells in normal culture medium or pre-incubated with VEGF-C156S (100 ng/ml).
For the next test, the target named is T2, Fc-CD146 (UniProt P43121).
T2 sequence: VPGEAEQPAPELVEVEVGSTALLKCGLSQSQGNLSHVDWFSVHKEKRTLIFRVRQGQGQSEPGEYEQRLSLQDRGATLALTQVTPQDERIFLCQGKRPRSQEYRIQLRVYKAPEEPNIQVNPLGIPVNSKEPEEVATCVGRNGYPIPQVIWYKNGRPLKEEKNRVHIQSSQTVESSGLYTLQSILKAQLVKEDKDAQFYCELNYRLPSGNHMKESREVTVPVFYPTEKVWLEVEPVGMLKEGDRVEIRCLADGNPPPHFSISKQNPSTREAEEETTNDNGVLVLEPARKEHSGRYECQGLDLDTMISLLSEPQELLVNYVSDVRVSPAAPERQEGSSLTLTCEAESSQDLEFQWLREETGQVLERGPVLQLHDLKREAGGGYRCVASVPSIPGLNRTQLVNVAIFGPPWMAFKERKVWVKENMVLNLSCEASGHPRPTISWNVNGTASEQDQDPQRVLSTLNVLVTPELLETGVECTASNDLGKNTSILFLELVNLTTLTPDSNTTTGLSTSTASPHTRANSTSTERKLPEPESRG
Briefly: pull-down; purified Fc, Fc-CD146 or Fc-VEGFR-3 (200 ng/ml each) with recombinant hVEGF-C (200 ng/ml) 1 h at 4 °C in HEPES buffer (0.05 M HEPES, 0.15 M NaCl, 0.001% Tween 20, pH 7.4), then held on protein G sepharose; WB; both purified.

No constants are given. Whether binding was seen depends on the method and setting. For some assays here: Binding seen in cells or lysates may run through a third protein. Some results given as binding are weak or reduced against the parent protein; the word gives no strength. For some assays here: Sequences can lack the tags named with a protein.

In the case of “CD146 (from UniProt P43121 24-646) (receptor)”, the binding entry in test [1] was “binds”.
On to “Human VEGF-C156S (from UniProt P49767 112-227) (ligand)”, for which, in test [2], the binding entry is listed as “binds”.
In the case of “VEGF-C (from UniProt P49767 112-227) (ligand)”, the binding entry in test [3] was “binds”.
With “VEGFR-3 (from UniProt P35916 25-1363) (receptor)”, the binding result in test [3] is on record as “binds”.
In the case of “recombinant hVEGF-C (from UniProt P49767 112-227) (ligand)”, in the test with Fc-CD146, the binding result was “binds”.
